The subject of the series is OsEME1-C (MBP removed by TEVp) (Oryza sativa L. japonica cv. KY131). The series is described as follows: EMSA. The following applies: 20 uM protein, 1 mM Mg2+, 5 mM ATP, EMSA/cleavage: 25 mM Tris-HCl pH 7.5, 1 mM MgCl2, 1 mM DTT, 2.5 uM Cy5 substrate, 30 C, recombinant protein, protein details: MBP cleaved by TEVp.

Chains of the proteins cited; added tags and fusions are not shown. Chains listed by the source or under a name are the forms on record and can include a tag or linker.
OsEME1-C (MBP removed by TEVp) (Oryza sativa L. japonica cv. KY131), one chain, as listed by the source: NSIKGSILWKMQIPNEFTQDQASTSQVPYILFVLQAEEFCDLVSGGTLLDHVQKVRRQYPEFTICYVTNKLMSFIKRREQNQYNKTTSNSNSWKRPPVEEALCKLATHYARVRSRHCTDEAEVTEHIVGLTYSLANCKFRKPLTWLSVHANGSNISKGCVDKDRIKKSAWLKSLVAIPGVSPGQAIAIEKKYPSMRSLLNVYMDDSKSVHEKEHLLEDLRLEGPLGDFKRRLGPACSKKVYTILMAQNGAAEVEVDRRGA

For at least one entry, the source does not settle the construct or the ends of the probe.

Take “CGTCGATGACATAGACTTCGGGGACTTCTTCCTGAGGCTGGAGGACGGTG / GAAGTCGGTGAAGATCTCGGCCGGGGTCCCCGAAGTCTATGTCATCGACG [OsGLK1-Y12]”: the binding result (label: 5' Cy5 on GLK1 X1) is “binds”. As to “GAAGAAGAAGGACGACGAGGAAAGGTCGTCGTCGTTGCCGGAGGAGAAAG / CTCCGTCGTCACCGCGCTCAGGACCCCTTTCCTCGTCGTCCTTCTTCTTC [OsGLK2-Y12]”, under “label: 5' Cy5 on GLK2 X1”, the binding result is recorded as “binds”. Regarding “GACGCTGCCGAATTCTGGCTTGCTAGGACATCTTTGCCCACGTTGACCCG / GCGATAGTCTCTAGACAGCATGTCCTAGCAAGCCAGAATTCGGCAGCGTC [Y12]”, the binding result (also cleaved) is “binds”.

The values above are taken from PMC12205872, “ESSENTIAL MEIOTIC ENDONUCLEASE 1 is required for chloroplast development and DNA repair in rice”.
